Here are results for one substance from article PMC12376507.

This test concerns the target T1, Flag-HPD (4-hydroxyphenylpyruvate dioxygenase with N-terminal Flag tag) (human) (UniProt P32754).
T1 sequence: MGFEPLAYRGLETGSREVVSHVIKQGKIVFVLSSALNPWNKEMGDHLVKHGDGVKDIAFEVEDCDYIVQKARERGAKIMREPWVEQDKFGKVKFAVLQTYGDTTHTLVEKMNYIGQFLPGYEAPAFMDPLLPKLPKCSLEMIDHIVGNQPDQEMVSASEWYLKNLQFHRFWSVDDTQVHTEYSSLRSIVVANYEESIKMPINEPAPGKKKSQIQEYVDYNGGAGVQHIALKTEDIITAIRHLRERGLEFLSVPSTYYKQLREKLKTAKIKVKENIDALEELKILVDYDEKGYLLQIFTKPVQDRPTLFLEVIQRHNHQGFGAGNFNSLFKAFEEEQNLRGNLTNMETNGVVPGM
As to the kind of experiment: affinity purification with mass spectrometry; Flag-HPD overexpressed in A2780 cells for 48 h; lysate immunoprecipitated with Flag antibody, IgG as negative control; SDS-PAGE, bands analysed by mass spectrometry.

No constants are given. Whether binding was seen depends on the method and setting. In cells and extracts the contact can be indirect. Here binding means that the protein was enriched with, or labelled near, the bait; the list need not be complete. Where a sequence is shown, tags or fusion partners need not be part of it.

With RPL20 (human (endogenous in A2780)), the binding result is “binds”.
